“And” between values parts separate entries of the source, which are not always exact repeats. Identical values can stand only once. This continues a long series; more values of the same kind are listed elsewhere.
Experiments:
[1] = test system: TC-71 Ewing sarcoma; test: Antitumour activity in TC-71 Ewing sarcoma xenograft model; assay type: in vivo, Athymic nude mice
Description: (§1) Experiments were performed with female Athymic nude mice, 9-10 weeks old obtained from Harlan Laboratories (Udine, Italy). They were maintained under Specific Pathogen Free conditions with constant temperature and humidity, according to the institutional guidelines.
(§2) Tumour growth mice was monitored two/three times a week (depending on tumour growth rate, to avoid unnecessary stress to the animals) by Vernier caliper. Mice were sacrificed when tumour reached a mean weight of 2±0.5 gr. The antitumour activity will be expressed as T/C %, where T and C were the mean tumour weight of treated and control groups, respectively. Mice were monitored daily and weighted at least two times a week. Tolerability was evaluated on the basis of body weight loss (BWL) and clinical observation.
(§3) Statistical analysis was performed with GraphPad Prism version 6.01 software (GraphPad software, Inc., La Jolla, CA, USA). ANOVA test was performed to evaluate if there were statistically significant differences between treated and control groups.
5×10^6 TC-71 cells were inoculated subcutaneously in the right flank of mice. The growing tumour masses were measured with the aid of a Vernier caliper, and the tumour weights (1 mm^3=1 mg) were calculated by the formula: length×(width) 2/2. When tumour load achieved about 100 mg, mice were randomized into the experimental groups and treatment started.

[2] = test system: DD013 dedifferentiated liposarcoma; test: Antitumour activity in DD013 dedifferentiated liposarcoma xenograft model; assay type: in vivo, Athymic nude mice; details: EDO40: EDO-S101 40 mg/kg q7dx3, 40 mg/kg
Description: as §1, §2, §3
Briefly, xenografts were obtained by transplanting 3-4 mm tumour fragments s.c. in the flanks of mice. The growing tumour masses were measured with the aid of a Vernier caliper, and the tumour weights (TW, 1 mm^3=1 mg) were calculated by the formula: length×(width) 2/2. When tumour load achieved about 200-400 mg, mice were randomized into the experimental groups.

SMILES: Cn1c(CCCCCCC(=O)NO)nc2cc(N(CCCl)CCCl)ccc21 [EDO-S101, 7-(5-(bis(2-chloroethyl)amino)-1-methyl-1H-benzo[d]imidazol-2-yl)-N-hydroxyheptanamide]
- TC-71 tumour weight, individual mice ([1]; EDO40: 40 mg/kg i.v. q7dx3, day 9 from inoculum): 210.6 mg and 147.7 mg and 112.5 mg and 110.5 mg and 85.6 mg and 72.3 mg and 51.9 mg and 37.4 mg
- TC-71 tumour weight, individual mice ([1]; EDO40: 40 mg/kg i.v. q7dx3, day 11 from inoculum): 398.0 mg and 222.8 mg and 185.7 mg and 145.9 mg and 159.8 mg and 110.1 mg and 40.4 mg
- TC-71 tumour weight, individual mice ([1]; EDO40: 40 mg/kg i.v. q7dx3, day 14 from inoculum): 482.6 mg and 244.5 mg and 150.6 mg and 130.2 mg and 133.7 mg and 93.9 mg and 28.7 mg
- TC-71 tumour weight, individual mice ([1]; EDO40: 40 mg/kg i.v. q7dx3, day 16 from inoculum): 732.9 mg and 274.3 mg and 208.5 mg and 127.4 mg and 129.2 mg and 151.1 mg and 31.8 mg
- TC-71 tumour weight, individual mice ([1]; EDO40: 40 mg/kg i.v. q7dx3, day 18 from inoculum): 1028.4 mg and 437.5 mg and 227.9 mg and 176.0 mg and 114.7 mg and 225.3 mg and 25.7 mg
- TC-71 tumour weight, individual mice ([1]; EDO40: 40 mg/kg i.v. q7dx3, day 21 from inoculum): 1377.1 mg and 312.3 mg and 174.8 mg and 194.1 mg and 132.0 mg and 217.6 mg and 30.6 mg
- TC-71 tumour weight, individual mice ([1]; EDO40: 40 mg/kg i.v. q7dx3, day 23 from inoculum): 1901.8 mg and 377.8 mg and 329.7 mg and 273.0 mg and 220.8 mg and 458.2 mg and 39.9 mg
- TC-71 tumour weight, individual mice ([1]; EDO40: 40 mg/kg i.v. q7dx3, day 25 from inoculum): 1964.4 mg and 473.5 mg and 349.6 mg and 257.3 mg and 299.0 mg and 456.3 mg and 35.8 mg
- TC-71 tumour weight, individual mice ([1]; EDO40: 40 mg/kg i.v. q7dx3, day 28 from inoculum): 2668.1 mg and 420.1 mg and 515.7 mg and 405.6 mg and 505.4 mg and 570.1 mg and 51.6 mg
- TC-71 tumour weight, individual mice ([1]; EDO40: 40 mg/kg i.v. q7dx3, day 30 from inoculum): 3428.9 mg and 513.3 mg and 927.1 mg and 763.7 mg and 793.9 mg and 827.6 mg and 134.4 mg
- TC-71 tumour weight, individual mice ([1]; EDO40: 40 mg/kg i.v. q7dx3, day 32 from inoculum): 3598.6 mg and 650.1 mg and 1375.3 mg and 1254.2 mg and 1384.8 mg and 1164.4 mg and 205.0 mg
- TC-71 tumour weight, individual mice ([1]; EDO60: 60 mg/kg i.v. q7dx3, day 9 from inoculum): 304.5 mg and 124.5 mg and 100.8 mg and 87.5 mg and 82.1 mg and 70.7 mg and 52.7 mg and 26.2 mg
- TC-71 tumour weight, individual mice ([1]; EDO60: 60 mg/kg i.v. q7dx3, day 11 from inoculum): 394.6 mg and 149.3 mg and 134.2 mg and 64.9 mg and 141.3 mg and 60.8 mg and 70.8 mg and 26.9 mg
- TC-71 tumour weight, individual mice ([1]; EDO60: 60 mg/kg i.v. q7dx3, day 14 from inoculum): 307.3 mg and 81.3 mg and 71.3 mg and 29.0 mg and 51.6 mg and 20.5 mg and 32.0 mg and 16.1 mg
- TC-71 tumour weight, individual mice ([1]; EDO60: 60 mg/kg i.v. q7dx3, day 18 from inoculum): 122.1 mg and 9.6 mg and 29.0 mg and 6.2 mg and 12.2 mg and 3.4 mg (2×) and 7.9 mg
- TC-71 tumour weight, individual mice ([1]; EDO60: 60 mg/kg i.v. q7dx3, day 21 from inoculum): 77.3 mg and 2.1 mg and 17.0 mg and 3.3 mg (2×) and 5.5 mg and 3.6 mg and 0.7 mg
- TC-71 tumour weight, individual mice ([1]; EDO60: 60 mg/kg i.v. q7dx3, day 23 from inoculum): 108.1 mg and 0.4 mg and 31.9 mg and 5.7 mg and 0.6 mg (2×) and 2.1 mg and 3.3 mg
- TC-71 tumour weight, individual mice ([1]; EDO60: 60 mg/kg i.v. q7dx3, day 25 from inoculum): 94.0 mg and 1.1 mg and 48.5 mg and 5.7 mg and 9.0 mg and 3.2 mg and 1.3 mg
- TC-71 tumour weight, individual mice ([1]; EDO60: 60 mg/kg i.v. q7dx3, day 28 from inoculum): 66.2 mg and 28.4 mg and 13.6 mg and 3.3 mg and 2.9 mg
- TC-71 tumour weight, individual mice ([1]; EDO60: 60 mg/kg i.v. q7dx3, day 30 from inoculum): 88.0 mg and 77.1 mg and 41.0 mg and 8.9 mg and 3.7 mg
- TC-71 tumour weight, individual mice ([1]; EDO60: 60 mg/kg i.v. q7dx3, day 32 from inoculum): 195.4 mg and 161.5 mg and 185.8 mg and 37.0 mg and 17.2 mg
- TC-71 tumour weight, individual mice ([1]; EDO60: 60 mg/kg i.v. q7dx3, day 35 from inoculum): 295.9 mg and 201.8 mg and 224.9 mg and 41.1 mg and 11.6 mg
- TC-71 tumour weight, individual mice ([1]; EDO60: 60 mg/kg i.v. q7dx3, day 42 from inoculum): 562.9071 mg and 681.301 mg and 589.6573 mg and 113.6766 mg and 36 mg
- TC-71 tumour weight, individual mice ([1]; EDO60: 60 mg/kg i.v. q7dx3, day 45 from inoculum): 889.1 mg and 725.2 mg and 1089.8 mg and 246.5 mg and 56.1 mg
- TC-71 tumour weight, individual mice ([1]; EDO60: 60 mg/kg i.v. q7dx3, day 49 from inoculum): 971.4 mg and 858.8 mg and 1414.8 mg and 475.3 mg and 102.8 mg and 29.0 mg
- TC-71 tumour weight, individual mice ([1]; EDO60: 60 mg/kg i.v. q7dx3, day 53 from inoculum): 1459.1 mg and 1050.5 mg and 2074.7 mg and 623.0 mg and 179.3 mg and 50.8 mg
- TC-71 tumour weight, individual mice ([1]; EDO60: 60 mg/kg i.v. q7dx3, day 56 from inoculum): 2228.2 mg and 2084.3 mg and 2978.8 mg and 1546.2 mg and 380.7 mg and 76.2 mg
- TC-71 tumour weight, individual mice ([1]; EDO80: 80 mg/kg i.v. single dose, day 28 from inoculum): 4.8 mg and 4.6 mg
- TC-71 tumour weight, individual mice ([1]; EDO80: 80 mg/kg i.v. single dose, day 30 from inoculum): 9.7 mg and 23.2 mg
- TC-71 tumour weight, individual mice ([1]; EDO80: 80 mg/kg i.v. single dose, day 32 from inoculum): 67.8 mg and 56.2 mg
- TC-71 tumour weight, individual mice ([1]; EDO80: 80 mg/kg i.v. single dose, day 35 from inoculum): 68.2 mg and 74.5 mg
- TC-71 tumour weight, individual mice ([1]; EDO80: 80 mg/kg i.v. single dose, day 38 from inoculum): 43.4 mg and 75.1 mg
- TC-71 tumour weight, individual mice ([1]; EDO80: 80 mg/kg i.v. single dose, day 42 from inoculum): 211.3 mg and 191.6 mg
- TC-71 tumour weight, individual mice ([1]; EDO80: 80 mg/kg i.v. single dose, day 45 from inoculum): 359.3 mg and 378.9 mg
- TC-71 tumour weight, individual mice ([1]; EDO80: 80 mg/kg i.v. single dose, day 49 from inoculum): 622.1 mg and 803.9 mg and 515.2 mg
- DD0113 tumour weight, individual mouse ([2]; day 23 from inoculum): 376.6 mg and 272.5 mg and 234.4 mg and 224.8 mg and 191.1 mg and 172.9 mg and 124.8 mg and 103.7 mg and 86.8 mg
- DD0113 tumour weight, individual mouse ([2]; day 26 from inoculum): 541.5 mg and 407.4 mg and 341.7 mg and 312.6 mg and 284.8 mg and 244.9 mg and 208.4 mg and 138.3 mg and 72.8 mg
- DD0113 tumour weight, individual mouse ([2]; day 29 from inoculum): 577.2 mg and 528.9 mg and 304.2 mg and 326.8 mg and 350.2 mg and 315.8 mg and 218.0 mg and 150.5 mg and 101.4 mg
- DD0113 tumour weight, individual mouse ([2]; day 33 from inoculum): 733.4 mg and 620.3 mg and 386.0 mg and 398.8 mg and 400.6 mg and 410.8 mg and 307.5 mg and 165.2 mg and 127.5 mg
- DD0113 tumour weight, individual mouse ([2]; day 36 from inoculum): 740.0 mg and 636.3 mg and 313.7 mg and 375.3 mg and 376.9 mg and 408.8 mg and 294.7 mg and 125.0 mg and 151.8 mg
- DD0113 tumour weight, individual mouse ([2]; day 40 from inoculum): 853.1 mg and 647.3 mg and 394.8 mg and 445.1 mg and 470.3 mg and 402.2 mg and 363.7 mg and 150.4 mg and 174.0 mg
- DD0113 tumour weight, individual mouse ([2]; day 43 from inoculum): 874.8 mg and 620.0 mg and 382.2 mg and 452.6 mg and 614.9 mg and 419.5 mg and 359.8 mg and 143.6 mg and 194.8 mg
- DD0113 tumour weight, individual mouse ([2]; day 47 from inoculum): 951.5 mg and 867.8 mg and 374.0 mg and 447.7 mg and 502.6 mg and 504.6 mg and 551.2 mg and 155.1 mg and 211.9 mg
- DD0113 tumour weight, individual mouse ([2]; day 50 from inoculum): 1015.8 mg and 910.3 mg and 477.7 mg and 675.3 mg and 556.8 mg and 593.9 mg and 509.8 mg and 166.1 mg and 228.8 mg
- DD0113 tumour weight, individual mouse ([2]; day 54 from inoculum): 1218.3 mg and 849.1 mg and 407.8 mg and 650.3 mg and 641.5 mg and 566.8 mg and 653.1 mg and 138.4 mg and 270.3 mg
- DD0113 tumour weight, individual mouse ([2]; day 58 from inoculum): 1198.4 mg and 939.5 mg and 361.1 mg and 647.5 mg and 526.9 mg and 517.8 mg and 678.7 mg and 148.4 mg and 238.9 mg
- DD0113 tumour weight, individual mouse ([2]; day 62 from inoculum): 1270.3 mg and 1057.1 mg and 400.9 mg and 778.6 mg and 706.2 mg and 694.4 mg and 795.3 mg and 127.1 mg and 271.1 mg
- DD0113 tumour weight, individual mouse ([2]; day 65 from inoculum): 1227.3 mg and 1277.6 mg and 371.1 mg and 690.9 mg and 485.1 mg and 740.8 mg and 906.7 mg and 153.2 mg and 247.5 mg
- DD0113 tumour weight, individual mouse ([2]; day 69 from inoculum): 1303.1 mg and 1503.3 mg and 405.2 mg and 866.7 mg and 447.9 mg and 712.8 mg and 742.0 mg and 124.4 mg and 223.2 mg
- DD0113 tumour weight, individual mouse ([2]; day 72 from inoculum): 1437.5 mg and 1078.7 mg and 409.0 mg and 909.6 mg and 438.2 mg and 702.4 mg and 638.6 mg and 146.3 mg and 267.4 mg
- DD0113 tumour weight, individual mouse ([2]; day 75 from inoculum): 1469.1 mg and 1076.6 mg and 425.4 mg and 836.1 mg and 429.0 mg and 742.0 mg and 670.3 mg and 117.4 mg and 229.4 mg
- DD0113 tumour weight, individual mouse ([2]; day 79 from inoculum): 1640.1 mg and 1320.3 mg and 560.8 mg and 876.4 mg and 387.3 mg and 854.9 mg and 755.9 mg and 144.0 mg and 271.2 mg
- DD0113 tumour weight, individual mouse ([2]; day 83 from inoculum): 1758.9 mg and 1083.6 mg and 394.8 mg and 1023.8 mg and 391.4 mg and 677.5 mg and 567.8 mg and 83.9 mg and 173.5 mg

From patent publication US12257237B2 (priority 2017, dated 2025)
